# Laboratory results: patent publication US8846569B2, “Pesticidal bis-organosulfur compounds” (Merial Limited, priority 2009, dated 2014)
# Some entries share one result that the patent states for a list of compounds. At least one structure is not confirmed: it was looked up by name or label, or the drawing left a doubt.
# Columns and labels:
# Assay type in all cases: in vivo
# Ctenocephalides felis [1] = experiment: Ctenocephalides felis contact assay; conditions: mortality of adult C. felis up to 72 hours post treatment
# Rhipicephalus sanguineus = Rhipicephalus sanguineus contact assay; conditions: mortality of adult R. sanguineus at 24 and 48 hours
# Ctenocephalides felis [2] = experiment: Ctenocephalides felis ingestion assay; conditions: mortality of adult C. felis at 72 hours, compound in cow blood
# Heliothis virescens = experiment: Tobacco budworm (Heliothis virescens) diet/egg test; conditions: 2500 ppm; egg and larval mortality, 5 days
# Procedure: For evaluating control of tobacco budworm (Heliothis virescens) the test unit consisted of 96-well-microtiter plates containing an insect diet and 15-25 H. virescens eggs.
# The compounds were formulated using a solution containing 75% v/v water and 25% v/v DMSO. Different concentrations of formulated compounds were sprayed onto the insect diet at 10 μl, using a custom built micro atomizer, at two replications.
# After application, microtiter plates were incubated at about 28±1° C. and about 80±5% relative humidity for 5 days. Egg and larval mortality was then visually assessed.
# The biological activity shown tables under CB.1 and CB.2 was evaluated on scale range from 0% as showing no biological activity to 100% as having total control. The biological tests were conducted as described above.
# Plutella xylostella = experiment: Diamond back moth (Plutella xylostella) stomach poison leaf dip test; conditions: 500 ppm, dipped Chinese cabbage leaves
# Procedure: The test solution is prepared at the day of use.
# Leaves of Chinese cabbage are dipped in test solution and air-dried. Treated leaves are placed in petri dished lined with moist filter paper. Mortality is recorded 24, 72, and 120 hours after treatment.
# The biological tests were conducted as described above.
# Aedes aegypti = Aedes aegypti neonate larvae motility assay; conditions: larval motility, dose response
# Procedure: Compounds formulated in 100% DMSO are tested in microtiter plates containing 180 ul 1× Luria Broth media and 10 neonate A. aegypti larvae. The efficacy of a compound is determined based on the motility of the larvae as compared to average motility of control wells containing DMSO only. A dose response assay is conducted with compounds with >80% reduction in motility in the primary assay to determine an EC50 value. Selected compounds are advanced to insecticide secondary assays.
structure (smiles),measurement,setting,value
"CC(C#N)(CCSC(F)(F)F)S(=O)(=O)CCC(F)(F)C(F)(F)F (stereo not drawn) [II-2, 2-Methyl-2-(3,3,4,4,4-pentafluoro-butane-1-sulfonyl)-4-trifluoromethyl-sulfanyl-butyronitrile]",EC50,Ctenocephalides felis [1],less than 20 ppm
same,EC50,Rhipicephalus sanguineus,less than 10 ppm
same,EC50,Ctenocephalides felis [2],less than 10 ppm
same,mortality in comparison with untreated controls,Heliothis virescens,over 90%
same,mortality in comparison with untreated controls,Plutella xylostella,over 90%
same,EC50,Aedes aegypti,less than 5 ppm
